Results on 64 molecules are retold here after PubChem BioAssay AID493014 (National Center for Advancing Translational Sciences (NCATS), 2011).

A short description of the experiment: qHTS Assay to Find Inhibitors of Chronic Active B-Cell Receptor Signaling. The note with it: ABC-DLBCL IkBa-CBG/CBR reporter, luminescence ratio (green luciferase fused to IkBa over red control in TMD8 lymphoma cells), 4 h. In outline: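 TMD8 human ABC-DLBCL cells with doxycycline-inducible IκBα–green luciferase fusion and unfused red luciferase, in 0.5% FBS medium; compounds up to 46 uM, 4 h at 37C. Green/red luminescence ratio, filter-overlap corrected, fitted to concentration-response curves.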

[1] abbreviates: measured here: CBR red luminescence, cell number.
Setting [2] is: measured here: IkBa-CBG green luminescence.

Some of the results follow. The main result of the screen is listed elsewhere. These columns were measured beside it and carry no call. Compounds called inactive in the main read-out are mostly missing here. Potencies come from curve fits of mixed quality, noted in brackets.

For `CC(C)C(=O)Nc1ccccc1N1CCN(C(=O)c2ccccc2)CC1`, the AC50 under setting [1] is 29.1 µM [rising, single point].

On to `COc1ccc(-c2ccc(CNCc3ccccn3)o2)cc1Cl`, for which the AC50 under setting [1] was 35.5 µM [rising, single point]. Turning to `O=S(=O)(Cc1cc(-c2ccc(Cl)cc2)no1)c1ccccc1`, under setting [1], the AC50 is 0.259 µM [rising, full curve, poor fit].

Regarding `O=[N+]([O-])c1ccc(F)cc1OCc1nc(-c2cccs2)no1`, under setting [1], the AC50 was 0.708 µM [rising, full curve, poor fit]. Consider `Cn1c(/C=C/c2ccccc2)nc2ccccc21`, for which the concentration at half-maximal activity (AC50) under setting [1] was 14.1 µM [falling, single point]. With `Nc1ccccc1SC(C[N+](=O)[O-])c1ccccc1` (configuration not stated), the AC50 under setting [1] was 20 µM [rising, single point] and the AC50 under setting [2] is 20 µM [falling, single point]. Take `CC(/C=N/NC(=O)c1ccccc1F)c1ccccc1` (configuration not stated): the AC50 under setting [1] was 7.94 µM [falling, partial curve].

With `CCC(C)C(=O)N1CCCC(c2nc(-c3cccs3)no2)C1` (configuration not stated), under setting [1], the AC50 was 18.4 µM [rising, partial curve, poor fit].

For `CN(Cc1ccccc1)C(=O)c1ccc(NC(=O)C2CCCN(C(=O)OC(C)(C)C)C2)cc1` (configuration not stated), under setting [1], the AC50 was 32.6 µM [falling, single point].

Take `O=C(/C=C/c1ccccc1)NC(NC(=S)Nc1ccc(Cl)cc1)C(Cl)(Cl)Cl` (configuration not stated): the AC50 under setting [1] was 14.1 µM [rising, single point]. As to `O=C(Nc1ccc(CN2CCOCC2)cc1)c1cc2ccccc2o1`, the AC50 under setting [1] is 29.1 µM [falling, single point]. As for `CCN(CC(=O)Nc1ccccc1OC)C(=O)CN1C(=O)NC(C)(c2ccc(C)cc2)C1=O` (configuration not stated), the AC50 under setting [1] is 0.164 µM [rising, full curve, poor fit].

For `O=C(Nc1ncccc1O)c1ccc2c(c1)OCCO2`, the AC50 under setting [1] was 20.6 µM [falling, partial curve, poor fit]. Regarding `CN(CC(=O)Nc1c(Cl)cccc1Cl)C(=O)c1sccc1-c1ccccc1`, under setting [1], the AC50 was 1.64 µM [rising, single point]. For `CCC/S(CC1CC1(Cl)Cl)=N\S(=O)(=O)c1ccc(C)cc1` (configuration not stated), under setting [1], the AC50 was 29.1 µM [rising, single point]. Regarding `COc1ccc(/C=N\NC(=O)c2ccccc2F)cc1COc1ccc(F)cc1F`, the AC50 is 35.5 µM [falling, single point] under setting [1] and 5.01 µM [falling, full curve] under setting [2]. In the case of `Cc1ccc(Cn2ccsc2=NC(=O)COC(=O)c2ccc(O)cc2O)cc1`, the AC50 under setting [1] was 25.1 µM [falling, partial curve, poor fit]. Still for that read-out and setting: the figure for `CCOc1ccc(-c2nc(-c3cccnc3)no2)cc1` is 1.03 µM [rising, full curve, poor fit]; for `O=C(NCc1cccnc1)C1CCN(Cc2cc3ccccc3n2Cc2cccc(Cl)c2)CC1` it is 25.1 µM [falling, single point]; for `Cc1cc2nc(C3CCCN(C(=S)Nc4ccccc4)C3)[nH]c2cc1C` (configuration not stated) it is 1.78 µM [falling, full curve]. As to `CC(=O)N(C(C)=O)c1c(C#N)c(C)n(-c2ccccc2)c1C(=O)c1ccccc1`, under setting [1], the AC50 was 29.1 µM [falling, single point].

Consider `Cc1ccc(C(=O)N/N=C/c2ccc3c(c2)OCO3)o1`, for which, under setting [1], the AC50 was 7.31 µM [falling, partial curve]. For the molecule `CN(C)C(=O)N1CCN(C(=O)c2ccccc2Sc2ccccc2C#N)CC1`, the AC50 under setting [1] is 6.51 µM [falling, single point].

Take `CCC1CCCCN1C(=O)COC(=O)CN(C)S(=O)(=O)c1ccc(NC(C)=O)cc1` (configuration not stated): under setting [1], the AC50 was 14.6 µM [rising, partial curve, poor fit].

In the case of `CCOC(=O)c1sc(NC(=O)CSC(=S)N2CCN(C)CC2)nc1C`, the AC50 under setting [1] is 6.31 µM [falling, partial curve]. Take `O=c1cc(NCc2ccco2)c2ccccc2o1`: the AC50 under setting [1] was 4.11 µM [falling, partial curve, poor fit]. Same read-out and setting: the figure for `CC(=O)Cc1nsc(NC(=O)c2ccc(-c3ccc(Cl)cc3Cl)o2)n1` is 29.1 µM [falling, single point]; for `COC(=O)C1=CN(c2cccc(C)c2)C=C(C(=O)OC)C1c1cc(OC)c(O)c([N+](=O)[O-])c1` it is 0.631 µM [falling, partial curve, poor fit]; for `O=C(c1cc(-c2ccccc2)n[nH]1)N1CCc2c([nH]c3ccccc23)C1c1ccccn1` (configuration not stated) it is 6.31 µM [rising, full curve, poor fit]. In the case of `Clc1cccc(/C=N/Nc2nc(Cl)nc3ccccc23)c1`, under setting [1], the AC50 is 1.26 µM [falling, partial curve, poor fit].

As for `O=C(/C=C/c1ccc(Br)cc1)c1ccco1`, the AC50 runs as follows: under setting [1], 29.1 µM [rising, single point]; under setting [2], 29.1 µM [falling, partial curve, poor fit]. In the case of `CC(=O)Nc1oc(-c2cccc3ccccc23)nc1C#N`, the AC50 under setting [1] was 1.64 µM [rising, full curve]. Same read-out and setting: under `Cc1cc(NS(=O)(=O)c2ccc(NC(=S)NC(=O)/C=C/c3ccccc3)cc2)no1` stands 6.31 µM [falling, partial curve, poor fit]; under `Cc1c(C(=O)NCc2ccccc2F)oc2ccccc12`, 1 µM [rising, full curve]. Same read-out and setting: the figure for `C=CCN1C(=O)CS/C1=C(\C#N)S(=O)(=O)c1ccc(C)cc1` is 1.64 µM [rising, partial curve, poor fit]; for `COc1ccccc1NC(=O)c1cccc(S(=O)(=O)N2CCN(Cc3ccccc3)CC2)c1` it is 2.91 µM [falling, partial curve, poor fit]; for `COCCNC(=O)/C(C#N)=C/c1c(N2CCCCCC2)nc2c(C)cccn2c1=O` it is 25.1 µM [falling, single point]. The same measure, in the same setting: the figure for `S=C(NCCc1ccc(Cl)cc1)NC1CCCCC1` is 12.6 µM [falling, partial curve]; for `Cc1cc(C)c(NC(=O)CNC(=O)COC(=O)CN2C(=O)NC3(CCCC3)C2=O)c(C)c1` it is 8.2 µM [rising, partial curve, poor fit]; for `CCNC(=O)C1CC(=O)N(Cc2ccc3c(c2)OCO3)C(=Nc2ccc(OCC)cc2)S1` (configuration not stated) it is 1.3 µM [falling, partial curve].

Turning to `Cc1ccc(S(=O)(=O)NCc2ccc(C(=O)NC3CCCCC3)cc2)cc1`, under setting [1], the AC50 is 35.5 µM [rising, single point]. For `CCCCCCn1c(=O)c(F)cn(Cc2ccc(OC)c([N+](=O)[O-])c2)c1=O`, under setting [1], the AC50 is 2.59 µM [rising, full curve, poor fit]. The same measure, in the same setting: under `C[n+]1ccc(/C=C/c2ccccc2O)c2ccccc21` stands 3.16 µM [falling, single point]; under `CS(=O)(=O)Nc1ccc(C2=NN(C(=O)c3ccco3)C(c3ccccc3F)C2)cc1` (configuration not stated), 22.4 µM [falling, single point]. For `COc1ccc(CC(=O)n2[nH]c(=O)cc(C)c2=O)cc1OC`, the AC50 under setting [1] was 14.1 µM [falling, partial curve, poor fit]. Consider `O=C(CNC(=S)N(Cc1ccccc1Cl)C1CCCC1)NCCCN1CCOCC1`, for which the AC50 under setting [1] was 22.4 µM [falling, single point]. Same read-out and setting: the figure for `Cc1ccc(NC(=O)CCNC(=O)c2ccc(Cl)cc2)nc1` is 17.8 µM [falling, single point].

With `O=C1CC(SC(=Nc2ccccc2)Nc2ccccc2)C(=O)N1c1ccc(Cl)c(Cl)c1` (configuration not stated), under setting [1], the AC50 was 29.1 µM [falling, single point]. In the case of `O=C(CCNC(=O)N1CC(=O)Nc2ccccc21)NCc1cccc(Cl)c1`, the AC50 under setting [1] is 5.62 µM [rising, single point]. The same measure, in the same setting: the figure for `COc1cc(/C=C2/C(=O)ON=C2C)cc(Cl)c1O` is 5.62 µM [rising, single point]; for `CCCc1cc(=O)[nH]c(NCCc2ccccc2)n1` it is 5.01 µM [rising, partial curve, poor fit]; for `CCOc1ccc(-c2nc(CSCC(=O)N3CCN(c4cccc(OC)c4)CC3)c(C)o2)cc1` it is 25.1 µM [falling, single point]. Same read-out and setting: under `CCOC(=O)c1c(NC(=O)c2nn(CC)cc2Br)c(C#N)nn1-c1ccccc1` stands 10.3 µM [falling, partial curve]. Still for that read-out and setting: under `Cc1nnc(SCC(=O)Nc2nc(-c3ccc(F)cc3)cs2)[nH]c1=O` stands 2.82 µM [rising, full curve, poor fit]. On to `CC(=O)N1CCN(CC(=O)NC(=O)Nc2ccc3c(c2)OCCO3)CC1`, for which the AC50 under setting [1] was 29.1 µM [falling, partial curve, poor fit]. In the case of `CCOC(=O)c1cnc2c(N=Nc3ccccc3)c(N)nn2c1N`, under setting [1], the AC50 is 0.0891 µM [falling, full curve, poor fit]. Take `Cc1cnn(-c2ccc3nnc(-c4ccc(Cl)cc4)n3n2)c1`: the AC50 under setting [1] was 0.447 µM [falling, full curve]. Same read-out and setting: under `Nc1nnc(SCC(=O)c2cccc([N+](=O)[O-])c2)s1` stands 10 µM [rising, partial curve, poor fit]; under `CCC(CC)c1nnc(NC(=O)c2ccc([N+](=O)[O-])cc2)s1`, 2.31 µM [rising, partial curve]; under `Cc1ccc(NC(=S)NC(=O)c2sc3ccccc3c2Cl)c(C(=O)O)c1`, 11.2 µM [falling, partial curve]. The same measure, in the same setting: the figure for `Cc1ccnc(N2C3CCC2CC(O)(c2ccccc2)C3)n1` (configuration not stated) is 35.5 µM [rising, single point].

On to `S=C1SCN(Cc2ccccn2)CN1Cc1ccco1`, for which, under setting [1], the AC50 is 0.562 µM [falling, partial curve, poor fit]. Regarding `CCCC(=O)Nc1nnc(-c2ccc(Cl)s2)o1`, the AC50 under setting [1] is 16.4 µM [falling, single point]. Same read-out and setting: the figure for `Cc1cc(C)c(OCC(=O)Nc2cccc(NC(=O)c3ccco3)c2)c(Br)c1` is 22.4 µM [falling, single point].
